# Several values for one entry are separate records, joined by “and”; a condition that tells them apart may be missing. Equal entries are not always repeated. The list shows a part of the results. Shown are side measurements of this screen, not its main read-out; they come without a call. For some of these results: The list favours compounds with an active or inconclusive main result. Potencies come from curve fits of mixed quality, noted in brackets.
# Sequences of proteins named here, by UniProt entry; tags and fusion partners are left off. A change or cut given only in a name is not applied to a line headed by its entry.
# UniProt P21964: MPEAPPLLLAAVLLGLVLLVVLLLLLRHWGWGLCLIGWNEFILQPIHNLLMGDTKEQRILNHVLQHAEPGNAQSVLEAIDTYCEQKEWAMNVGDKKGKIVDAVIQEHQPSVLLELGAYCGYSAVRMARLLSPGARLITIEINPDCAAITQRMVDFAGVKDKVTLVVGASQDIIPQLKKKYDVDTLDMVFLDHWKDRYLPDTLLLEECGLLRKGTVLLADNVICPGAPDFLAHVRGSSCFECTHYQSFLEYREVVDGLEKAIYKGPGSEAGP
# UniProt P50135: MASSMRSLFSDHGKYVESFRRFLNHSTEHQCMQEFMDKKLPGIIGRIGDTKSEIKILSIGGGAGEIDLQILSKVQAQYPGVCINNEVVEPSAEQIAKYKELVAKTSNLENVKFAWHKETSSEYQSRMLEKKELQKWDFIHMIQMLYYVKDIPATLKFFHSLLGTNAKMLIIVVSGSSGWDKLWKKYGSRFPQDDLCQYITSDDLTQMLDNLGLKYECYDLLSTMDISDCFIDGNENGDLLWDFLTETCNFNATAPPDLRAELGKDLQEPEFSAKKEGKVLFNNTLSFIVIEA
# UniProt P40261: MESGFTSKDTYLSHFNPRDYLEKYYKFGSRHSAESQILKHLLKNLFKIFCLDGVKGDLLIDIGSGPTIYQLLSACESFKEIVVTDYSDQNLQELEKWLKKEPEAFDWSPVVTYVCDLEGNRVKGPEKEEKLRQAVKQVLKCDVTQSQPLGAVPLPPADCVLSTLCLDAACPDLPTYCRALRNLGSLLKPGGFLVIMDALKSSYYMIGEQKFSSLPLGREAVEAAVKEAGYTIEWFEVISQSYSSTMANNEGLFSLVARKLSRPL
# UniProt P11086: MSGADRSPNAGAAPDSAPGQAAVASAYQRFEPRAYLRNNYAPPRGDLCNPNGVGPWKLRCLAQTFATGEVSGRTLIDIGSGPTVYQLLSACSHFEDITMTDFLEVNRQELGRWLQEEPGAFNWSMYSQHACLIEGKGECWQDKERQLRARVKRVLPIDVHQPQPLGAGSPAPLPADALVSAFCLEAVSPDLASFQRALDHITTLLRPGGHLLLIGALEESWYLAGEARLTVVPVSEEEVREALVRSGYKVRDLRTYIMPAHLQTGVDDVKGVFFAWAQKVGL
# Experiments:
# [1] = Validation of Assay for Modulators of Lamin A Splicing (AID 1459); settings: Lamin A splicing dual RFP/GFP fluorescence reporter, ratio
# Procedure, shortened: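 HeLa S3 lamin A-EGFP/DsRed2 stable clone, 600 cells/well, Opti-MEM 2% FBS; compounds by pin tool; 48 hrs, 37 °C/5% CO2; Acumen 488 nm scan, objects 10-100 um; GFP/RFP intensity ratio.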
# [2] = qHTS Assay for Lipid Storage Modulators (AID 1519); settings: Drosophila S3 cells, BODIPY lipid droplet/cell ratio, laser cytometry, cells loaded with oleic acid
# Procedure, shortened: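 Cells seeded at 5,000 per well were treated with compounds over a concentration series and loaded with oleic acid (400 uM, as added). Lipid droplet fluorescence (488 nm excitation, 500-530 nm channel) was read by laser-scanning cytometry and normalized to 20 uM Triacsin C.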
# [3] = qHTS Assay for Inhibitors of PDE-IV (AID 607); settings: HEK293 ACTOne CNG channel cells, membrane potential fluorescence; measured here: parental cell counter-screen
# Procedure, shortened: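 Live HEK293 cells with a modified cyclic nucleotide-gated (CNG) channel report intracellular cAMP via membrane-potential dye fluorescence (ex 535/em 590 nm). Endogenous PDE-IV was targeted. Compounds were tested at up to 22.9 uM final; RO 20-1724 100 uM served as control.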
# [4] = qHTS Assay for Modulators of Human Peripheral Myelin Protein 22 (PMP22) Expression/Activity (AID 1967); settings: Cell-based PMP22 reporter, dual-color luciferase ratio
# Procedure, shortened: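 Luminescence ratio of Pmp22 promoter-driven green luciferase to EF-alpha-driven red luciferase, in engineered mouse MSC80 Schwann cells, served as read-out. Compounds were incubated 24h; untreated cells defined 0% Activity; curves were classified by r2, magnitude and activity.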
# [5] = qHTS Validation Assay to Find Inhibitors of Chronic Active B-Cell Receptor Signaling (AID 485345); settings: ABC-DLBCL cells, chronic BCR signaling reporter
# Procedure, shortened: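 TMD8 ABC-DLBCL cells with dox-inducible green luciferase–IκBα fusion and red native luciferase; compounds 46 uM–3 nM, 4 h at 37C with doxycycline in 0.5% FBS IMDM. Green/red ratio normalized to basal and 10 uM MG-132.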
# [6] = Nrf2 qHTS screen for inhibitors: Validation (AID 493153); settings: A549 ARE-Fluc reporter, 18-24 h; AC50: CellTiter-Fluor fluorescence read, measured here: cytotoxicity CellTiter-Fluor AC50; viability change: measured here: cytotoxicity max response
# Procedure, shortened: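 Luminescence from an ARE-firefly luciferase reporter in A549 cells gives Nrf2 inhibition; an earlier CellTiter-Fluor fluorescent read flags cytotoxicity. Cells in 5% FBS OPTI-MEM received compound dilution series for 18-24 h at 37°C.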
# [7] = biological target: Catechol O-methyltransferase (Homo sapiens) (UniProt P21964); assay: Confirmatory Screen for Target Class Profiling of Small Molecule Inhibitors of Methyltransferases (AID 1745852); settings: MTase-Glo luminescence, SAH detection, recombinant enzyme; measured here: COMT inhibition potency
# [8] = biological target: Histamine N-methyltransferase (Homo sapiens) (UniProt P50135); assay: as above; settings: MTase-Glo luminescence, SAH detection, recombinant enzyme; measured here: HNMT inhibition potency
# [9] = biological target: Nicotinamide N-methyltransferase (Homo sapiens) (UniProt P40261); assay: as above; settings: MTase-Glo luminescence, SAH detection, recombinant enzyme; measured here: NNMT inhibition potency
# [10] = biological target: Phenylethanolamine N-methyltransferase (Homo sapiens) (UniProt P11086); assay: as above; settings: MTase-Glo luminescence, SAH detection, recombinant enzyme; measured here: PNMT inhibition potency
# [11] = qHTS drug screen for cell cycle checkpoint inhibitors in PARPi-resistant BRCA-mutant ovarian cancer cell lines. (AID 1963452); settings: PEO1/OlaR viability, CellTiter-Glo luminescence, 96 h; measured here: PEO4 viability
# Procedure, shortened: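 PEO1, PEO4 and PEO1/OlaR ovarian cancer cells, 600 per well, exposed 96 h at 37C to a dilution series. Viability read by CellTiter-Glo luminescence, normalized to DMSO and empty wells; activity summarized as Z-AUC.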
# [12] = measured here: cell count channel max response
# [13] = measured here: lipid channel max response
# [14] = measured here: cell number channel AC50
# [15] = measured here: lipid (BODIPY) channel AC50
# [16] = measured here: green reporter channel AC50, mouse Pmp22 promoter in mouse Schwann cells
# [17] = measured here: red reporter channel AC50, EF-alpha promoter control reporter in MSC80 mouse Schwann cells
# [18] = measured here: CBG/CBR ratio read-out
smiles,measurement,setting,value
COc1cc2c(cc1O)CCC1C2CC[C@]2(C)[C@@H](O)CC[C@@H]12 (some centres undefined),AC50,[1]; measured here: GFP channel,"10 µM [falling, partial curve, poor fit]"
same,AC50,[1]; measured here: RFP channel,"10 µM [falling, partial curve, poor fit]"
same,max response,[2]; [12],-23.8%
same,max response,[2]; [13],-45.9%
NS(=O)(=O)c1cc2c(cc1Cl)NC(C1CC3C=CC1C3)NS2(=O)=O (centres undefined),AC50,[1]; measured here: GFP channel,"6.31 µM [falling, single point]"
same,AC50,[1]; measured here: RFP channel,"6.31 µM [falling, single point]"
same,max response,[2]; [12],-29.8%
same,max response,[2]; [13],-31.6%
CCCCOc1cc(CC2CNC(=O)N2)ccc1OC (centres undefined),AC50,[1]; measured here: GFP channel,"15.8 µM [rising, partial curve]"
same,AC50,[1]; measured here: RFP channel,"22.4 µM [rising, single point]"
same,max response,[2]; [12],73.4%
same,AC50,[2]; [14],"39.8 µM [rising, single point]"
same,AC50,[2]; [15],"39.8 µM [rising, single point]"
same,max response,[2]; [13],76.4%
C[C@H]1c2cccc(O)c2C(O)=C2C(=O)[C@]3(O)C(O)=C(C(N)=O)C(=O)C(N(C)C)[C@@H]3[C@@H](O)C21 (some centres undefined),AC50,[1]; measured here: GFP channel,"3.55 µM [falling, single point]"
same,AC50,[1]; measured here: RFP channel,"3.55 µM [falling, single point]"
same,max response,[2]; [12],51%
same,AC50,[2]; [14],"7.94 µM [falling, full curve, poor fit]"
same,max response,[2]; [13],34.3%
O=C1C(SCCO)=C(SCCO)C(=O)c2ccccc21,AC50,[3],"0.316 µM [falling, full curve]"
same,AC50,[1]; measured here: GFP channel,"3.98 µM [falling, full curve]"
same,AC50,[1]; measured here: RFP channel,"3.55 µM [falling, full curve]"
same,max response,[2]; [12],-62.7% and -53.3%
same,AC50,[2]; [14],"39.8 µM [falling, partial curve, poor fit] and 8.91 µM [falling, full curve, poor fit]"
same,AC50,[2]; [15],"12.6 µM [falling, full curve, poor fit] and 10 µM [falling, full curve, poor fit]"
same,max response,[2]; [13],-86.5% and -101%
same,AC50,[4]; [16],"8.49 µM [falling, full curve]"
same,AC50,[4]; [17],"8.49 µM [falling, full curve]"
same,AC50,[5]; [18],"5.17 µM [falling, single point]"
same,AC50,[5]; measured here: CBR control luciferase (viability counter),"14.6 µM [falling, partial curve]"
same,AC50,[6],"29.1 µM [falling, partial curve, poor fit]"
same,viability change,[6],-29.1%
same,IC50,[7],"1.53 µM [falling, full curve]"
same,IC50,[8],"30.6 µM [falling, partial curve]"
same,IC50,[9],"30.6 µM [falling, partial curve]"
same,IC50,[10],"1.53 µM [falling, full curve]"
Nc1nc(Cl)nc2c1ncn2[C@@H]1O[C@H](COP(=O)(O)OP(=O)(O)OP(=O)(O)O)[C@H](O)[C@H]1O,AC50,[1]; measured here: GFP channel,"28.2 µM [falling, single point]"
same,AC50,[1]; measured here: RFP channel,"14.1 µM [falling, partial curve]"
same,max response,[2]; [12],0.216%
same,AC50,[2]; [14],"3.55 µM [falling, full curve]"
same,AC50,[2]; [15],"3.98 µM [falling, full curve, poor fit]"
same,max response,[2]; [13],2%
CCCCCCCCCCCCCCCCCCNC(=O)OCC(COP(=O)([O-])OCC[n+]1ccsc1)OC (centres undefined),AC50,[1]; measured here: RFP channel,"25.1 µM [falling, single point]"
CCCCCCCCCCCCCCCCCC(=O)NCC(COP(=O)([O-])OCC[N+](C)(C)C)OCC (centres undefined),AC50,[1]; measured here: GFP channel,"7.08 µM [falling, partial curve]"
same,AC50,[1]; measured here: RFP channel,"6.31 µM [falling, full curve]"
Oc1cc(O)cc(/C=C/c2ccc(O)c(O)c2)c1,AC50,[1]; measured here: GFP channel,"35.5 µM [falling, single point]"
same,AC50,[1]; measured here: RFP channel,"14.1 µM [falling, partial curve]"
same,max response,[2]; [12],51.7%
same,AC50,[2]; [14],"28.2 µM [rising, partial curve, poor fit]"
same,AC50,[2]; [15],"28.2 µM [rising, partial curve, poor fit]"
same,max response,[2]; [13],52.3%
same,AC50,[4]; [16],"42.6 µM [falling, partial curve]"
same,AC50,[4]; [17],"30.1 µM [falling, full curve]"
same,AC50,[5]; [18],"10.3 µM [falling, partial curve]"
same,AC50,[6],"16.4 µM [falling, partial curve, poor fit]"
same,viability change,[6],-25.3%
same,IC50,[7],"1.09 µM [rising, full curve]"
same,AC50,[11],"5.49 µM [falling, partial curve]"
OC[C@H]1O[C@@H](n2cnc3cncnc32)[C@H](O)[C@@H]1O,AC50,[1]; measured here: GFP channel,"17.8 µM [rising, single point]"
same,AC50,[1]; measured here: RFP channel,"17.8 µM [rising, single point]"
same,max response,[2]; [12],8.27%
same,AC50,[2]; [14],"3.16 µM [falling, full curve, poor fit]"
same,AC50,[2]; [15],"3.16 µM [falling, full curve, poor fit]"
same,max response,[2]; [13],9.74%

# A second format for part of the listing above.
smiles | measurement | setting | value
OC[C@H]1O[C@@H](n2cnc3cncnc32)[C@H](O)[C@@H]1O | AC50 | [1]; measured here: GFP channel | 17.8 µM [rising, single point]
same | AC50 | [1]; measured here: RFP channel | 17.8 µM [rising, single point]

# From PubChem BioAssay (NCATS)
